No constants are given. Whether binding was seen depends on the method and setting. Some entries that bind do so weakly or less than the wild type.
Columns and labels:
[1] = molecular target: Rfa1, full length, as subunit of recombinant ScRPA (S. cerevisiae) (UniProt P22336); assay: SEC-MALS; Apo-RPA on Superdex S200; 20 mM Tris-HCl pH 7.5, 150 mM NaCl, 0.5 mM TCEP, 25 °C; both purified
[2] = molecular target: Rfa1 S178D, full length, as subunit of recombinant RPA^S178D (S. cerevisiae) (UniProt P22336); assay: cryo-EM structure; ScRPA (WT or S178D) on dT100 ssDNA, complexes purified by SEC; 20 mM Tris-HCl, 150 mM NaCl, 1 mM DTT, pH 7.4; Tri-C at 4.7 Å, RPA dimer at 7.5 Å; both purified
[3] = molecular target: Rfa1, full length, as subunit of recombinant ScRPA (S. cerevisiae) (UniProt P22336); assay: as above
[4] = molecular target: Rfa2, full length, as subunit of recombinant ScRPA (S. cerevisiae) (UniProt P26754); assay: as above

Sequences of proteins named here, by UniProt entry; tags and fusion partners are left off. A change or cut given only in a name is not applied to a line headed by its entry.
UniProt P22336: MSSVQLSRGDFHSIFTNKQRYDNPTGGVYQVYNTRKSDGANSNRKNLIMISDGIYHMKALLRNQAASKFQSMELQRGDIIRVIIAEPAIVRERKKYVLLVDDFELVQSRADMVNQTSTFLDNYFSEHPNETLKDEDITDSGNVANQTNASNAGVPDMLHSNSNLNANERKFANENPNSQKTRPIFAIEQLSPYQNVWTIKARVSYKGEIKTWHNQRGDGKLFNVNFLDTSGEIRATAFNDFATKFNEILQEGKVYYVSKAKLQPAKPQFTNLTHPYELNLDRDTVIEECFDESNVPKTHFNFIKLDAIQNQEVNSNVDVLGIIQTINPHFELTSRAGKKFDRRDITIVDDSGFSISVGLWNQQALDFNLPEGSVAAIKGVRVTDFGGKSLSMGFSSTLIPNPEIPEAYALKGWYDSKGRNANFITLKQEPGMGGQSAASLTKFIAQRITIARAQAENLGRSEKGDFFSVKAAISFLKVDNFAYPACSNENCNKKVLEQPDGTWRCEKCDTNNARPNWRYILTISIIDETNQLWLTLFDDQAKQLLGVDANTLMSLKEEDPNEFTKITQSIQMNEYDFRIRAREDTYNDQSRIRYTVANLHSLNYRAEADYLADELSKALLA
UniProt P26754: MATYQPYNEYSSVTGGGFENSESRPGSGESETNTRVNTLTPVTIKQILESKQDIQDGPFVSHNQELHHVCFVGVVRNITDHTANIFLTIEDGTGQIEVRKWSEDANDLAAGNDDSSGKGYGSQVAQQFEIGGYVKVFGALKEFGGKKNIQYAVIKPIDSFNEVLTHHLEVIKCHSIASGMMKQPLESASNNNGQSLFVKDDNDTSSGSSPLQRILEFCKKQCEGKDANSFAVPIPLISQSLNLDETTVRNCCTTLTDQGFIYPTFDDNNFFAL
UniProt P26755: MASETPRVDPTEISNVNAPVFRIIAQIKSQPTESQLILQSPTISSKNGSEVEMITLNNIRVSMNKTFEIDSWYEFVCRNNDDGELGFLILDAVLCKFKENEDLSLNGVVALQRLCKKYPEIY

Measured: binding

Rfa2, full length, as subunit of recombinant ScRPA (from UniProt P26754 1-273)
binds: [1] | [2] | [3]

Rfa3, full length, as subunit of recombinant ScRPA (from UniProt P26755 1-122)
binds: all assays above

From publication PMC6303327
